Results: the supplement of paper PMC6411743
± gives the standard deviation of the averaged measurements. This is a selection; strong and weak results do not stand in their true shares. Most entries show no effect beyond the scatter of the controls.

Target: T1, UniProt Q8N0U8 and related entries
T1 sequence (whole entry): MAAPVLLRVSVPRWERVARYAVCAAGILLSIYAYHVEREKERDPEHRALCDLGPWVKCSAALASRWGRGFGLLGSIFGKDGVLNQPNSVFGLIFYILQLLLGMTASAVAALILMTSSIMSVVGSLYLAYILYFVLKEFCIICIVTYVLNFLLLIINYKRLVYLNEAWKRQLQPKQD
Experiment: NP40-soluble protein abundance relative to vehicle (solubility fold change) (ratio); higher = more soluble protein in presence of ATP
Outline: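 In three independent experiments, Jurkat crude lysate made by Dounce homogenisation was treated for 10 min at room temperature and then 3 min at 37 °C with eight concentrations ranging from 0.1 to 10 mM. It was then solubilised with 0.8% NP40 plus benzonase for 60 min at 4 °C and ultracentrifuged. The supernatant was TMT-labelled for LC-MS/MS, and each value is the fold change against the detergent-processed vehicle for the same replicate, using vsn-normalised intensities.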

Nc1ncnc2c1ncn2[C@@H]1O[C@H](COP(=O)(O)OP(=O)(O)OP(=O)(O)O)[C@@H](O)[C@H]1O [adenosine triphosphate]
NP40-soluble protein abundance (concentration: 0.1mM): 0.981 ± 0.12 | NP40-soluble protein abundance (concentration: 0.5mM): 0.929 ± 0.085
